The supplement of paper PMC10849652
Some of the results follow.

By UniProt entry, the sequences of proteins in these tests, tags left out. Where a name states a change or a piece, a line headed by the entry shows the natural chain unless it says otherwise.
UniProt Q6WKZ4: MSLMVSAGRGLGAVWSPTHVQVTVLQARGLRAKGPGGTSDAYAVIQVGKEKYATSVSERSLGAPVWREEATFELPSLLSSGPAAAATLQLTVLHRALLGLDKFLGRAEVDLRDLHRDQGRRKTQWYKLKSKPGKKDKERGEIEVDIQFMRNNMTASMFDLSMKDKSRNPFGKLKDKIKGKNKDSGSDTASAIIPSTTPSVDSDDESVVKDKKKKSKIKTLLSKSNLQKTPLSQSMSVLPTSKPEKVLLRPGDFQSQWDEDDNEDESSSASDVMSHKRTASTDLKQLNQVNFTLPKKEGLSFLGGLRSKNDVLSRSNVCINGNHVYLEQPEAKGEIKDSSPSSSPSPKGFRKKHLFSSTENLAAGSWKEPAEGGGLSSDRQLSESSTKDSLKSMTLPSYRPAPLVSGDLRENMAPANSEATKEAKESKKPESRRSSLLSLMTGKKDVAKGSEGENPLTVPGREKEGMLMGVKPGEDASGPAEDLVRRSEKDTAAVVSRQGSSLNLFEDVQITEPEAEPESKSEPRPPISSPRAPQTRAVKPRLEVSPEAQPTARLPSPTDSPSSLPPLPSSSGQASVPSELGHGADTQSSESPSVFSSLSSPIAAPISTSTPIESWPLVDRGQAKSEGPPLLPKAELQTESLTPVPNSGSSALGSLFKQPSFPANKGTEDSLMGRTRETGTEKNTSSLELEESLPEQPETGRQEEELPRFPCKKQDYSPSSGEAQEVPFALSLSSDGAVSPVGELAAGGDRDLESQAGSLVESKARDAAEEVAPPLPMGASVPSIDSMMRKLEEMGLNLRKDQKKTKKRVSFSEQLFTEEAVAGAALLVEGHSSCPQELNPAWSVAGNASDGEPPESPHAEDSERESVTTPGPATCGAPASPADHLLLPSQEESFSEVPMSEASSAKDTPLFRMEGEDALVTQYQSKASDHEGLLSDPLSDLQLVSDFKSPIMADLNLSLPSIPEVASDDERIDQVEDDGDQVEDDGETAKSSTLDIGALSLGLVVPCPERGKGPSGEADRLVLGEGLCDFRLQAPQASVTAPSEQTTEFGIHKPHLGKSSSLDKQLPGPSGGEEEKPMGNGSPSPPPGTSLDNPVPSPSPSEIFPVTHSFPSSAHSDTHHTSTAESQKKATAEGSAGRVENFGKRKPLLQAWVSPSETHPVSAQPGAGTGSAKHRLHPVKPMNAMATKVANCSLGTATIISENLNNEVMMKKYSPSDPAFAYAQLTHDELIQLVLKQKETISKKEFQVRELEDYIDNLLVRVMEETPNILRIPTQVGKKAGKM
UniProt Q9H2M9: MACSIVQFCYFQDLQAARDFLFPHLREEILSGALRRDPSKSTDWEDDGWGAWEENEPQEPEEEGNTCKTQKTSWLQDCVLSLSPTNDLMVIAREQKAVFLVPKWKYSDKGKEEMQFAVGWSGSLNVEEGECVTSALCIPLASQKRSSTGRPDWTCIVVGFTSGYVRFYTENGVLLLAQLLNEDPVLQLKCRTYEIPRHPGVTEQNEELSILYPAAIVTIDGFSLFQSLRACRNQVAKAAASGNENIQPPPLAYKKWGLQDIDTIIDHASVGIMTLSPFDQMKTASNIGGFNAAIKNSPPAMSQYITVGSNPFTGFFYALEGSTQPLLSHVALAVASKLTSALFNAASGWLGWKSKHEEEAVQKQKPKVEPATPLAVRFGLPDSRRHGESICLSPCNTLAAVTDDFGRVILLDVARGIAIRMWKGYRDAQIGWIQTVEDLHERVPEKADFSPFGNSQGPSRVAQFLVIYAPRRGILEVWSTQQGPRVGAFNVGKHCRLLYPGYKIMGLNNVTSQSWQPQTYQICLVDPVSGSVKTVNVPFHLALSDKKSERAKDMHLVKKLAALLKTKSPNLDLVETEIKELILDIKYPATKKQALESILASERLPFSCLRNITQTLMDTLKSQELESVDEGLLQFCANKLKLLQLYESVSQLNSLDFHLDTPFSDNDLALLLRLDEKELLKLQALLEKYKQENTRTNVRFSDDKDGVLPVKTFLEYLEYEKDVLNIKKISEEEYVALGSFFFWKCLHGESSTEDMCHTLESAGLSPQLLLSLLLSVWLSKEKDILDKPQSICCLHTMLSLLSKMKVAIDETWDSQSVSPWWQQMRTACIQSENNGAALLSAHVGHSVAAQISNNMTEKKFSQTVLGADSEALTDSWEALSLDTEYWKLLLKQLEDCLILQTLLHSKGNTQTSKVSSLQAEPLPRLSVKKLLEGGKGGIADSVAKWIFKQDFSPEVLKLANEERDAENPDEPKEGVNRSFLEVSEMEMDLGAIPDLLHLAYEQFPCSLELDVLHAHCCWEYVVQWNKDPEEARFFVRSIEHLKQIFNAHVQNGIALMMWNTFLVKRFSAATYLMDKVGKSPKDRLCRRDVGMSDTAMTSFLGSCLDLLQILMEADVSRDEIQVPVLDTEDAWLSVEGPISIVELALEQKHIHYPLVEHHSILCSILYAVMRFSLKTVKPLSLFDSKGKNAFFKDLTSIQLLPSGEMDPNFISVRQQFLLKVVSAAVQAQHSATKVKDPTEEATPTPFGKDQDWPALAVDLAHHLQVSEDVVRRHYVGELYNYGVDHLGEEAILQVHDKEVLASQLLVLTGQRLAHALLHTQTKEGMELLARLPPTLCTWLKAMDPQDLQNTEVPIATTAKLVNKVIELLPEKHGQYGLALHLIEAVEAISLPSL
UniProt P47224: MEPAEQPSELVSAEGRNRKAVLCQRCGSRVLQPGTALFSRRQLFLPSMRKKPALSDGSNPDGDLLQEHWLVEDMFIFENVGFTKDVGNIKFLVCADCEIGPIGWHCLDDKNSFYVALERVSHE
UniProt Q8WWW0: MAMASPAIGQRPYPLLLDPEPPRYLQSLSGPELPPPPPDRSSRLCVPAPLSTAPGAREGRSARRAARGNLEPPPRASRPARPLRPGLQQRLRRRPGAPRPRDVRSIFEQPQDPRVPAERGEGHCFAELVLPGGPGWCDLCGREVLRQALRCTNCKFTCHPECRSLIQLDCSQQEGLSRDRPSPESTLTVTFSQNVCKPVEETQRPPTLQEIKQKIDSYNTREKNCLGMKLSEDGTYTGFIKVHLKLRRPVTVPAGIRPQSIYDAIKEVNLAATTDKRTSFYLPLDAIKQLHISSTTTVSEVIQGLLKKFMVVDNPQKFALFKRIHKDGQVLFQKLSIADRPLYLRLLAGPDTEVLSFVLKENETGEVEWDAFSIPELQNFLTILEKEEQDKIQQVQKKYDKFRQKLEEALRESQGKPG
UniProt O60671: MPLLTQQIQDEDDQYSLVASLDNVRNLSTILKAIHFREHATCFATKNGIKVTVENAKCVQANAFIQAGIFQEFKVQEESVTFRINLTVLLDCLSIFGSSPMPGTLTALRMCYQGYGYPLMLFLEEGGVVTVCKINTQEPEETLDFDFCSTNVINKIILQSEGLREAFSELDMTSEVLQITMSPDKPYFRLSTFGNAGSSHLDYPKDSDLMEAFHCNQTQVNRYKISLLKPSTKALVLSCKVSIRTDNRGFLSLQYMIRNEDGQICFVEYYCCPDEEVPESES
UniProt Q96S59, whole entry, looked up: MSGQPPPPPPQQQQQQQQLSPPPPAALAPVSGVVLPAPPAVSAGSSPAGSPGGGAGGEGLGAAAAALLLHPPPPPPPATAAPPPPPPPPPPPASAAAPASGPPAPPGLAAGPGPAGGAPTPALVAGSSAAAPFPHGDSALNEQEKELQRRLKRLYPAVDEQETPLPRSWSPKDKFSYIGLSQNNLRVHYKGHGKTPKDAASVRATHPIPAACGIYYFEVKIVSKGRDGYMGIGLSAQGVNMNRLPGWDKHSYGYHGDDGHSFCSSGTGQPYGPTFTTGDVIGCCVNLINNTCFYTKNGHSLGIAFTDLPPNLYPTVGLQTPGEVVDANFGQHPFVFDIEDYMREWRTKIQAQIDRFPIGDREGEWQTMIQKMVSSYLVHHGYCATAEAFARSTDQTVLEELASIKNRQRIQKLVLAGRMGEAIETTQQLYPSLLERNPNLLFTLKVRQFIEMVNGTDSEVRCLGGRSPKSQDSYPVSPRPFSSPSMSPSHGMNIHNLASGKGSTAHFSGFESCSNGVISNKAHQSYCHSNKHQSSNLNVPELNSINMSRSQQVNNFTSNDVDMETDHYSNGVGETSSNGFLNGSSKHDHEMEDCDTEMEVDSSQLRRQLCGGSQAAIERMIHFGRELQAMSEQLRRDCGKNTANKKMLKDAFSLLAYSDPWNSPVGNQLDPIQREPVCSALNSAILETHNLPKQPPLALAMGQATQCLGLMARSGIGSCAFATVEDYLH

Key:
Experiment in all cases: log2 fold change, soluble protein after heating vs DMSO (PISA); higher = thermal stabilisation; K562 cells, 10 uM, 30 min; active = over 0.2 and 3.5 SD of the protein, either way, in both replicates (recomputed)
[1] = compound: C1=CC=C(C=C1)[C@H](COC2=CC3=C(C=C2)NC(=O)N3)NC(=O)C4=CC=CN(C4=O)CC5=CC(=C(C=C5)F)F
Method in brief: (§1)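 K562 cells at 2×10^6 cells/mL were treated with 10 μM compound for 30 min. Aliquots were heated for 3 min across 48°C-58°C, pooled, and extracted in PBS with 0.5% NP-40 at 4°C; soluble protein was the supernatant after 21,000xg for 90 min. Soluble protein was quantified by TMTpro 16plex LC-MS/MS with channel sums equalised, and reported as log2 fold change in thermal stability against DMSO controls, with values from duplicates.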

[2] = compound: CC1=C(SC2=C1C(=N[C@H](C3=NN=C(N32)C)CC(=O)N)C4=CC=C(C=C4)Cl)C
Method in brief: as §1

[3] = compound: CC1=C2C(=CC=C1)N=C(N(C2=O)C3=CC=CC=C3C)CN4C=NC5=C(N=CN=C54)N
Method in brief: as §1

[4] = compound: Cc1sc2c(c1C)C(c1ccc(Cl)cc1)=N[C@@H](CC(=O)OC(C)(C)C)c1nnc(C)n1-2
Method in brief: as §1

[5] = compound: c1ccc([C@@H]2C[C@H]2NC2CCNCC2)cc1
Method in brief: as §1

Measured: log2 fold change

RAB11FIP1 (UniProt Q6WKZ4)
inactive: [1] 0.041 | [2] 0.071 | [3] 0.086 | [4] -0.006 | [5] 0.046

RAB3GAP2 (UniProt Q9H2M9)
inactive: [1] -0.023 | [2] -0.07 | [3] 0.051 | [4] 0.04 | [5] 0.001

RAC1 (UniProt P63000)
inactive: [1] -0.046 | [2] 0.017 | [3] -0.111 | [4] -0.098 | [5] 0.033

RABIF (UniProt P47224)
inactive: [1] 0.045 | [2] 0 | [3] -0.059 | [4] -0.024 | [5] 0.111

RASSF5 (UniProt Q8WWW0)
inactive: [1] 0.02 | [2] -0.007 | [3] 0.132 | [4] 0.069 | [5] 0.015

RAD1 (UniProt O60671)
inactive: [1] -0.014 | [2] 0.017 | [3] 0.079 | [4] 0.037 | [5] 0.043

RANBP9 (UniProt Q96S59)
inactive: [1] 0.024 | [2] 0.03 | [3] 0.007 | [4] 0.005 | [5] 0.061
